Reference: publication doi:10.1101/2024.12.14.628500
Results are given in words; binding and its absence hold for the method and conditions named. Binding seen in cells or lysates may run through a third protein. Some results given as binding are weak or reduced against the parent protein; the word gives no strength. Where a sequence is shown, tags or fusion partners need not be part of it.

Molecular target: T1, Atp6-HA-6xHis (ATP synthase subunit Atp6, C-terminally tagged by HA-6xHis) (S. cerevisiae) (UniProt P00854)
T1 sequence: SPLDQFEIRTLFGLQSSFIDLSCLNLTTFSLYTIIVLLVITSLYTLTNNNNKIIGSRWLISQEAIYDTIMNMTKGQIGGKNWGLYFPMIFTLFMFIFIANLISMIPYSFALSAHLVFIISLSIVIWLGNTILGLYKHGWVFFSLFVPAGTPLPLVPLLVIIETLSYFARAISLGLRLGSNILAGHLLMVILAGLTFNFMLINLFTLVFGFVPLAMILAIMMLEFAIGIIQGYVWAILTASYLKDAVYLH
Test: pull-down

binding: binds
B1: Atp3 (ATP synthase subunit γ) (protein, UniProt P38077 34-311)
chain: ATLKEVEMRLKSIKNIEKITKTMKIVASTRLSKAEKAKISAKKMDEAEQLFYKNAETKNLDVEATETGAPKELIVAITSDKGLCGSIHSQLAKAVRRHLNDQPNADIVTIGDKIKMQLLRTHPNNIKLSINGIGKDAPTFQESALIADKLLSVMKAGTYPKISIFYNDPVSSLSFEPSEKPIFNAKTIEQSPSFGKFEIDTDANVPRDLFEYTLANQMLTAMAQGYAAEISARRNAMDNASKNAGDMINRYSILYNRTRQAVITNELVDIITGASSLG
